Laboratory results taken from paper PMC10604625.
These are yes or no findings as the source states them, for the method shown. Binding can be weak; no strength is given. Where a sequence is shown, tags or fusion partners need not be part of it.

Target: T1, SQOR fragment S3 (301-450), yeast two-hybrid fusion (human) (UniProt Q9Y6N5)
T1 sequence: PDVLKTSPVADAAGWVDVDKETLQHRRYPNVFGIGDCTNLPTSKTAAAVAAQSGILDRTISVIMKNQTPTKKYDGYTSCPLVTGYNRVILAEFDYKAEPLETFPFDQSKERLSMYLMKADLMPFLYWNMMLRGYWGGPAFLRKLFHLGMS
Assay: two-hybrid; yeast two-hybrid-based growth assay: diploid yeast in broth with serially diluted irisflorentin (IFT, up to 100 uM), spot assay on non-selective (SD/-Leu/-Trp) or selective (SD/-Ade/-His/-Leu/-Trp) plates, 30 C, 3 days, and OD600 in broth every 12 h for 48 h

- binding: binds
Substance: glycine-alanine dipeptide repeat protein GA50, yeast two-hybrid fusion (human)
